Measurements taken from PubChem BioAssay (NCATS).
Inconclusive means that the source gave no clear call. Such entries were picked first, then a sample of the others. Potencies of inconclusive entries are doubtful fits and often do not repeat. The source made the active and inactive calls. The call rests on the fitted dose curve; in most records, active means well fitted cell-killing curve with a large enough effect; inconclusive means small, poorly fitted or top-dose-only effect; inactive means flat fitted curve, though single readings scatter.

experiment: SDT Cancer Cell Toxicity qHTS against the NCATS CANVASS Library (AID 1347365); conditions: SDT dog glioma viability, ATP luminescence, 72 h; series mostly up to 46.1 µM; activity change, negative = cytotoxicity: at the top concentration; further: nearly all actives have a fitted effect of over 60% in size
Description: Natural products and their derivatives continue to be wellsprings of nascent therapeutic potential. However, many laboratories have limited resources for biological evaluation, leaving their previously isolated or synthesized compounds largely or completely untested. To address this issue, the Canvass library of natural products was assembled (https://tripod.nih.gov/canvass), in collaboration with academic and industry researchers, for quantitative high-throughput screening (qHTS) across a diverse set of cell-based and biochemical assays. The pure (>85% purity by liquid chromatography/mass spectrometry [LC/MS]) Canvass library of 346 natural products were submitted by 45 academic laboratories and companies around the world. We collected pure natural products to circumvent deconvolution and structure elucidation due to time and resource limitations. The library was formatted into 1536-well plates and evaluated in 50 qHTS (in an 11-pnt concentration series) bioassays with broad scope of disease-relevant mechanisms. The resulting data set from 50 different assays was then systematically analyzed to identify overall trends and specific natural products with interesting biological activities. Reported herein are the results of each individual qHTS and their corresponding assay protocol. This assay uses ATP (luminescence) content to measure the cytotoxiciy of compounds on SDT dog glioma cancer cell line. National Center for Advancing Translational Sciences (NCATS), Rockville, MD National Institute of Health (NIH), Bethesda, Maryland
Cancer Cell Toxicity qHTS protocol: for cell lines G06, J3T, and SDT. 1. In a 1536 well, tissue culture treated white solid bottom plates (Corning 7494), 5 uL of SDT cell solution (final concentration of 500 cells / well) was dispensed using the Multidrop Combi dispenser (Thermo Fisher Scientific) into columns 2, 3, 5-48. 2. Control and Compounds were pin transferred (~23 nL volume) to the assay plates via Wako Pin-tool (Wako Automation, Richmond VA) equipped with a 1536 pin head. The compounds were transferred to columns 5-48 resulting in a final concentration ranging from 0.17 nM to 103 uM. Dose response titration of Bortezomib was pin transferred into column 2 (1mM; 1:2 dilution; 16 points) resulting to a final concentration range of 0.1 nM - 4.6 uM. 3. The assay plates were further incubated in the at 37C, 5% CO2, 95% Rh for 72 hr. 4. After incubation, 3 uL of CellTiterGlo reagent (Promega) was added to the assay plates (column 1-48, rows 1-32) and centrifuged for 15 sec at 1000 rpm to remove bubbles. 5. Luminescence signal was acquired via the ViewLux plate reader (PerkinElmer) using a clear emission filter, 2 sec exposure, and 1x binning settings.
On the % scale 0 is the no-effect control and ±100 the full control effect; potency means the concentration at half of the fitted maximal effect.

SMILES | Potency | activity change, negative = cytotoxicity | outcome
CCCCCCC[C@@H](C/C=C/CCC(=O)NCCc1c[nH]c2ccccc12)OC | inconclusive: 33.2 µM [cytotoxic, single point] |  | 
C[C@H]1C[C@@H]([C@@H]2CC[C@]34O[C@H](CC[C@@]35C[C@H](C)C(=O)O5)CN24)OC1=O |  | inactive: -8.28% | 
COC(=O)c1cc2cc3c(c(O)c2c(=O)o1)OC1(CC3)CC2=C(O1)C(=O)c1c(O)c(OC)cc(OC)c1C2=O (stereo not given) | inconclusive: 33.2 µM [cytotoxic, single point] |  | 
C=C[C@@](C)(O)CC[C@@H]1[C@@]2(C)CCCC(C)(C)[C@@H]2CC[C@@]1(C)O | inconclusive: 18.7 µM [cytotoxic, single point] |  | 
CC(C)=CC[C@H]1C[C@@]2(CC=C(C)C)C(=O)[C@](CC=C(C)C)(C(=O)C(C(=O)c3ccccc3)=C2O)C1(C)C | inconclusive: 33.2 µM [cytotoxic, single point] |  | 
C[C@@]12CCC[C@@](C)(C(=O)OP(=O)(O)OC[C@H]3O[C@@H](n4cnc5c(N)ncnc54)[C@H](O)[C@@H]3O)[C@H]1C[C@@H](O)[C@@]13C[C@@H](CC[C@@H]21)[C@](C)(O)C3 | inconclusive: 26.4 µM [cytotoxic, single point] |  | 
CC1=CC2=C[C@H](C)C[C@@]23OC(=C(C)C3=O)CC(C)(C)/C=C/C1=O | active: 0.662 µM |  | 
CN1C(=O)C(=O)N2C(=C[C@]3(c4c[nH]c5ccccc45)c4ccccc4N[C@H]23)C1=O |  |  | inactive
COc1ccc([C@@H]2c3cc4c(cc3C[C@H](C)C2C)OCO4)cc1OC (stereo not given in full) | inconclusive: 23.5 µM [cytotoxic, single point] |  | 
C/C(=C\[C@@H](C)CC/C=C/CC/C=C/C(=O)O)[C@@H](O)[C@H](C)C(=O)CCCC1CC(=O)NC(=O)C1 | inconclusive: 26.4 µM [cytotoxic, single point] |  | 
C1=C2CCCN[C@@H]2[C@@H]2CCN3CCCC[C@@H]3[C@H](C1)C2 |  | inactive: -20% | 
C[C@@H]1C[C@H]2C[C@]3(CCCCN3C)[C@@H]3C[C@H]2[C@H](C1)N(C)C3 |  | inactive: -22.8% | 
CC1C(=O)C23CCC1C[C@@]21O[C@H]2C(C)(C)C=CC(=O)[C@@]23COC1=O (stereo not given in full) |  | inactive: 6.97% | 
COc1ccc([C@@H]2c3cc4c(cc3C(=O)C(C)C2C)OCO4)cc1OC (stereo not given in full) |  | inactive: -1.33% | 
COc1ccc([C@@H]2c3cc4c(cc3C(=O)[C@H](C)C2C)OCO4)cc1OC (stereo not given in full) | inconclusive: 26.4 µM [cytotoxic, single point] |  | 
COc1cc(/C=C/C(=O)OC[C@@H](Cc2ccc(O)c(OC)c2)[C@@H](COC(=O)/C=C/c2ccc(O)c(OC)c2)Cc2ccc(O)c(OC)c2)ccc1O | inconclusive: 33.2 µM [cytotoxic, single point] |  | 
C=C1C[C@H]2O[C@@H]3[C@@H]4[C@H](CC[C@@](C)(O)[C@@H]42)[C@H](C)COC3(C)[C@@H](OC(=O)CCCCCCC)CC1=O (stereo not given in full) | active: 23.5 µM |  | 
COC(=O)c1cccc2oc(-c3cccc4oc(-c5c(C)cccc5O)nc34)nc12 | inconclusive: 10.5 µM [cytotoxic, partial curve] |  | 
COc1cc(C2C3=C(Cc4cc5c(cc42)OCO5)C(=O)OC3)cc(OC)c1OC (stereo not given) | active: 0.118 µM |  | 
C=C1C(=O)O[C@H]2[C@H]1CCC(C)=C1CC[C@@](C)(O)[C@@H]12 | active: 26.4 µM |  | 

SMILES | Potency | activity change, negative = cytotoxicity | outcome
COc1cc(O)c(C(=O)[C@@H]2[C@H](CC=C(C)C)C(C)=CC[C@H]2c2ccccc2)c(O)c1 | inconclusive: 26.4 µM [cytotoxic, single point] |  | 
COc1cc2c(cc1OC)[C@@H](c1ccc3c(c1)OCO3)C(C)[C@@H](C)C2=O (stereo not given in full) | inconclusive: 37.2 µM [cytotoxic, single point] |  | 
CNc1ccc(Cl)cc1C(=O)OC[C@]1(C)[C@H]2CC[C@]3(C)[C@@H](C[C@@H](OC)[C@H](C)[C@H]3C3=C(O)C(=O)OC3O)[C@]2(C)CC[C@H]1O (stereo not given in full) | inconclusive: 29.6 µM [cytotoxic, single point] |  | 
C=C1C[C@@]23C=CC(=O)[C@@](C)(CCC(=O)Nc4c(O)ccc(C(=O)O)c4O)C2C[C@@H]1C(O)C3 (stereo not given in full) |  | inactive: -17.8% | 
CCCc1c2c([nH]c(=O)c1C)C(=O)c1[nH]c(=O)c(C)c(CCC)c1C2=O | inconclusive: 11.8 µM [cytotoxic, partial curve] |  | 
C[C@H]1CCC2(OC1)O[C@H]1C[C@H]3[C@@H]4CC(=O)[C@]5(O)C[C@H](O)CC[C@@]5(C)[C@H]4CC[C@@]3(C)[C@H]1[C@H]2C (stereo not given in full) | inconclusive: 37.2 µM [cytotoxic, partial curve, poor fit] |  | 
C=CC(C)(C)C(=O)[C@@H](C)[C@@H]1CC[C@@](C)(C=C)O1 |  | inactive: -0.75% | 
COC(=O)[C@@]12Oc3cccc(O)c3C(O)=C1C(=O)C[C@H](C)[C@H]2O |  | inactive: -7.89% [at 91.4 µM] | 
CC(=O)O[C@H]1c2ccccc2-c2c3c(cc4c2[C@@H]1N(C(C)=O)CC4)OCO3 |  | inactive: -18.6% | 
C[C@H](c1cnc(N)[nH]1)c1ccc(O)c2[nH]cc(-c3cnc(-c4c[nH]c5ccccc45)c(=O)[nH]3)c12 | inconclusive: 23.5 µM [cytotoxic, single point] |  | 
CN1CC[C@@]2([C@@]34CCN(C)[C@@H]3Nc3ccccc34)c3ccccc3N[C@@H]12 | inconclusive: 2.96 µM [cytotoxic, full curve] |  | 
COc1cc2oc3ccccc3c(=O)c2cc1OC | inconclusive: 38.2 µM [cytotoxic, partial curve] |  | 
C=C1CC[C@@H](O[C@H]2C[C@@](O)([C@H](C)NC(=O)c3[nH]c(C)c(Cl)c3Cl)[C@H](O)[C@@H](C)O2)[C@@H]2C=C[C@H](C)C(/C(O)=C3/C(=O)[C@H](C(C)C)N([C@@H]4O[C@H](C)[C@H](OC(N)=O)[C@H](OC(C)=O)[C@@H]4OC)C3=O)[C@@H]12 (stereo not given in full) |  | inactive: -7.47% | 
CC[C@@H]1[C@H](C)[C@H](c2cc(OC)c(OC)cc2OC)[C@@H](C)[C@H](c2cc(OC)c(OC)cc2OC)[C@]12C=C(OC)C(=O)C=C2OC | inconclusive: 26.4 µM [cytotoxic, single point] |  | 
CC(C)[C@@H]1CC(=O)c2coc3c2[C@H]1C[C@@H](C)C3=O | inconclusive: 33.2 µM [cytotoxic, single point] |  | 
CN1C(=O)C2C(N=CN2C)N(C)C1=O (stereo not given) |  | inactive: 0.818% | 
CCCCCCCCC[C@@H]1C[C@@H]2CC[C@H]3[C@@H](C(=O)OCCCCN=C(N)N)[C@@H](C)N=C(N1)N23 | active: 2.58 µM |  | 
C=C(Cl)[C@](Cl)(CBr)CC[C@@H](Br)C(C)(C)Cl | inconclusive: 37.2 µM [cytotoxic, single point] |  | 
CC(=O)NC[C@@H]1O[C@H](CC/C=C(C)/C(C)=C/C=O)[C@H](C)C[C@H]1O | inconclusive: 26.4 µM [cytotoxic, single point] |  | 
C=C[C@]1(C)CC[C@@H]([C@H](C)C(=O)OCC)O1 | inconclusive: 12.9 µM [cytotoxic, partial curve] |  | 

Looked up above.
Under Potency, C[C@H](c1cnc(N)[nH]1)c1ccc(O)c2[nH]cc(-c3cnc(-c4c[nH]c5ccccc45)c(=O)[nH]3)c12 shows inconclusive: 23.5 µM [cytotoxic, single point]
Under activity change, negative = cytotoxicity, C=CC(C)(C)C(=O)[C@@H](C)[C@@H]1CC[C@@](C)(C=C)O1 shows inactive: -0.75%
